Laboratory results from patent publication US20230242885A1, “METHOD OF PRODUCING CARDIOMYOCYTE POPULATION, METHOD OF PROLIFERATING CARDIOMYOCYTES, CARDIOMYOCYTE POPULATION, TRANSPLANTATION MATERIAL, MULTINUCLEATED CARDIOMYOCYTE, AND KIT FOR PROLIFERATING CARDIOMYOCYTES” (Myoridge Co. Ltd., priority 2020, published 2023).

System: cardiomyocytes induced from human iPS cells (253G1 strain)
Test: Proliferation culture of cardiomyocytes with WNT signal activator CHIR99021, serial subculture (Example 2)
Type: cell-based
Details: CHIR99021 3 μM; for average maximum length of multinucleated cardiomyocytes: 2.0×10^5 cells/cm^2
Description: A “ratio of multinucleated cardiomyocytes” was determined from a percentage of multinucleated cardiomyocytes in 10,000 cardiomyocytes.
Thereafter, the culture medium was replaced every 3 to 4 days, and culturing was performed for 2 weeks (a first serial subculture).
For the cells obtained after each serial subculture, “cardiomyocyte purity”, “cardiomyocyte proliferation rate”, “ratio of multinucleated cardiomyocytes”, and “average maximum length of multinucleated cardiomyocytes” were determined according to the same procedure as in Example 1.

Cc1cnc(-c2cnc(NCCNc3ccc(C#N)cn3)nc2-c2ccc(Cl)cc2Cl)[nH]1 [CHIR99021, 6-[2-[[4-(2,4-dichlorophenyl)-5-(5-methyl-1H-imidazol-2-yl)pyrimidin-2-yl]amino]ethylamino]pyridine-3-carbonitrile]
average maximum length of multinucleated cardiomyocytes (after first serial subculture): 85 μm | sarcomeric structures in multinucleated cardiomyocytes (after first serial subculture): striped sarcomeric structures were observed | sarcomeric structures in multinucleated cardiomyocytes (after third serial subculture, compared with first): a clearer striped structure could be observed | average maximum length of multinucleated cardiomyocytes (after third serial subculture): 106 μm
